Results: article PMC11957191
No constants are given. Whether binding was seen depends on the method and setting. Some entries that bind do so weakly or less than the wild type.

Protein sequences, listed by entry. Tags and fused reporters are not part of them. Lines headed by an entry give the natural chain unless they say otherwise; changes in a name come on top. Chains listed by the source or under a name are the forms on record and can include a tag or linker. Residues count along the entry.
UniProt P84077: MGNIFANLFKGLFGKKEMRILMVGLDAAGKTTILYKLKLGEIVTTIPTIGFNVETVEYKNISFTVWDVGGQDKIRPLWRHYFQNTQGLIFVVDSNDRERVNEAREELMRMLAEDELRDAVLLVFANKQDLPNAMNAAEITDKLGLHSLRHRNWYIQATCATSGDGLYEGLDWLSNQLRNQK
MTSL-tagged myrArf1 K73C (Cys159 mutated to Ala) (P84077, form named): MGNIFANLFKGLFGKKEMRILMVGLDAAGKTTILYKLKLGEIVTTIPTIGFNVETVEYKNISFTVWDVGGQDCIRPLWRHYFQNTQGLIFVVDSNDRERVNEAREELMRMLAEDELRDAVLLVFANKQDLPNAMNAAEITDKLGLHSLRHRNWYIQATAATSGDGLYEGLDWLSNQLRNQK
MTSL-tagged myrArf1 K38C (Cys159 mutated to Ala) (P84077, form named): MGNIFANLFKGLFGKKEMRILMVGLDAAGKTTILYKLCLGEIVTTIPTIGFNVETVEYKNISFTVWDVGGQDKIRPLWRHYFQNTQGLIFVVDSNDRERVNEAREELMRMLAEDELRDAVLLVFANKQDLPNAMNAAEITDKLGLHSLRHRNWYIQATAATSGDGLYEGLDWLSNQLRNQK
wt ASAP1 PH domain, [325–451]ASAP1 (Q9QWY8, residues 325-451): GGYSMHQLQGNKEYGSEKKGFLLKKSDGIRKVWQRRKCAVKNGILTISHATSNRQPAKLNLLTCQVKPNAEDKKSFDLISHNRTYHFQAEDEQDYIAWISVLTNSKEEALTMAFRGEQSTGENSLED
ΔN9 ASAP1 PH domain, [334–451]ASAP1 (Q9QWY8, residues 334-451): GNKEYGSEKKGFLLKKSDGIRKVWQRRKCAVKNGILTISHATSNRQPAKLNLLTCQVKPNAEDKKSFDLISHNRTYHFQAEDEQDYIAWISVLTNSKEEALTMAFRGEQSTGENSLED
ΔN14 ASAP1 PH domain, [339–451]ASAP1 (Q9QWY8, residues 339-451): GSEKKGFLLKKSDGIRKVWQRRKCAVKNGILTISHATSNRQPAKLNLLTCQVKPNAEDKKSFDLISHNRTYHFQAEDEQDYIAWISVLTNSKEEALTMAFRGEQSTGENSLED

Legend:
[1] = target: myristoylated human Arf1 (myrArf1), GTP-bound form at a membrane surface (human) (UniProt P84077); assay: NMR titration; 1H-15N TROSY-HSQC (1D projections) on nanodiscs with PI(4,5)P2: labelled myrArf1 without and with a stoichiometric ratio of wt PH; ZA-labelled PZA on nanodiscs alone or with membrane-bound myrArf1 (25 °C); both purified
[2] = target: myristoylated human Arf1 (myrArf1), GTP-bound form at a membrane surface (human) (UniProt P84077); assay: 31P NMR; 1D 31P spectra of GTPγS bound to myrArf1 on nanodiscs, alone or with ASAP1 PH, 25 °C; both purified
[3] = target: MTSL-tagged myrArf1 K73C (Cys159 mutated to Ala) (human) (UniProt P84077); assay: NMR intermolecular paramagnetic relaxation enhancement (PRE); 60 μM MTSL-labelled myrArf1 variants on nanodiscs, 50 μM methyl-labelled perdeuterated ASAP1 PH, paramagnetic against ascorbate-reduced sample, 25 °C; both purified
[4] = target: MTSL-tagged myrArf1 K38C (Cys159 mutated to Ala) (human) (UniProt P84077); assay: as above
[5] = target: myristoylated human Arf1 (myrArf1), GTP-bound form at a membrane surface (human) (UniProt P84077); assay: NMR titration; 1H-13C methyl HMQC, 25 °C; myrArf1·GTPγS on nanodiscs (PC:PI(4,5)P2 95:5) with ASAP1 PH at about equimolar ratio (1:1.2); one partner methyl-labelled, the other 2H or 1H; 20 mM Tris-HCl pH 7.4, 150 mM NaCl, 1 mM MgCl2, 0.5 mM TCEP; both purified
[6] = target: myristoylated human Arf1 (myrArf1), GTP-bound form at a membrane surface (human) (UniProt P84077); assay: other fluorescence titration + other: inhibition of GAP activity; PH domain titrated; (i) rate of mant-GTP dissociation from myrArf1 on LUVs with 5 mol% PI(4,5)P2, followed by FRET from Arf tryptophan to mant-GTP, excess GTP 160 μM; (ii) IC50 of PH domain for GAP activity of 1 nM wt PZA on myrArf1·GTP below the Km; both served as proxies for the affinity; both purified
[7] = target: Cys159-MTSL tagged myrArf1 (human) (UniProt P84077); assay: NMR intermolecular paramagnetic relaxation enhancement (PRE); Cys159-MTSL myrArf1 with a non-hydrolysable GTP analog on nanodiscs, alone or in complex with wt PH (100 μM), and 100 μM isotopically labeled isolated ZA domain; both purified

Measured: binding

wt ASAP1 PH domain, [325–451]ASAP1 (from UniProt Q9QWY8 325-451) (domain or fragment)
binds: all assays above

ΔN9 ASAP1 PH domain, [334–451]ASAP1 (from UniProt Q9QWY8 334-451) (domain or fragment)
binds: [5]

ΔN14 ASAP1 PH domain, [339–451]ASAP1 (from UniProt Q9QWY8 339-451) (domain or fragment)
binds: [5]
